Experimental data from publication doi:10.1101/2024.06.26.599433.
These are yes or no findings as the source states them, for the method shown. In cells and extracts the contact can be indirect. Some results given as binding are weak or reduced against the parent protein; the word gives no strength.

Amino acid sequences for entries named in this document (tags omitted). A change or cut given only in a name is not applied to a line headed by its entry.
UniProt Q8C5L3, whole entry: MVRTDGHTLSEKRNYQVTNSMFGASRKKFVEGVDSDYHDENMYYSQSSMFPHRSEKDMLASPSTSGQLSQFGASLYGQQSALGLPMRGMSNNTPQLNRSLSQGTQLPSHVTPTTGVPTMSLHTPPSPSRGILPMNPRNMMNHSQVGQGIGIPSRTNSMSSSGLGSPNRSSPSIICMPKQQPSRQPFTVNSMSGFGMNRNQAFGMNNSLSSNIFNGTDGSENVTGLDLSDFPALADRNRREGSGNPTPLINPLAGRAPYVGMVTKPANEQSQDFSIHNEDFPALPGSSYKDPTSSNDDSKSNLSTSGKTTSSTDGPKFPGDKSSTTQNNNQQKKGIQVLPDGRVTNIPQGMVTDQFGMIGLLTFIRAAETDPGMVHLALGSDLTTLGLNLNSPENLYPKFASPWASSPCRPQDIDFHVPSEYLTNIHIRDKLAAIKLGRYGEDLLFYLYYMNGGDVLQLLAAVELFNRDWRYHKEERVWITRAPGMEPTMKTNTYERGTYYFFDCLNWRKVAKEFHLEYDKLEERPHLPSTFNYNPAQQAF
UniProt Q8K0V4, whole entry: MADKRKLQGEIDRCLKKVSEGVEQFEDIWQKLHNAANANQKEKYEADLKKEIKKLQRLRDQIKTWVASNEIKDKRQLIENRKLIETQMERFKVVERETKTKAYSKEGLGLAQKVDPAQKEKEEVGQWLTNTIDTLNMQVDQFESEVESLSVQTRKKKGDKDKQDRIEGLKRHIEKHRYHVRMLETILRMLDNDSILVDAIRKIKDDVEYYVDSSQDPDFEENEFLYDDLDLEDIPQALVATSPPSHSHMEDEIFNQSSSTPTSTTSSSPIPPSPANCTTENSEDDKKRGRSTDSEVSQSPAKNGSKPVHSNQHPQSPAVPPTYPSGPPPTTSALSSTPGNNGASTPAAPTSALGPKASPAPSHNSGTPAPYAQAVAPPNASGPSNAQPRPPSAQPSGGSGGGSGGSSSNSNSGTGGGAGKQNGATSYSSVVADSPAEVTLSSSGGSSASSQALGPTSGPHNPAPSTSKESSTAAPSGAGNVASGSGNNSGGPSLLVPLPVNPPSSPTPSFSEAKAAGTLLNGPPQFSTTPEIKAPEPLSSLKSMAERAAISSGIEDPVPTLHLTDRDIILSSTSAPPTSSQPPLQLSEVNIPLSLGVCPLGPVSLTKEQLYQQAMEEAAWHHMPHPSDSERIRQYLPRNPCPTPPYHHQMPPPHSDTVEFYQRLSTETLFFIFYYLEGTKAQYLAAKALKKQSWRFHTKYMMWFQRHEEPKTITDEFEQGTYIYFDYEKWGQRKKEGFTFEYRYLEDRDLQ
UniProt Q9D8X5, whole entry: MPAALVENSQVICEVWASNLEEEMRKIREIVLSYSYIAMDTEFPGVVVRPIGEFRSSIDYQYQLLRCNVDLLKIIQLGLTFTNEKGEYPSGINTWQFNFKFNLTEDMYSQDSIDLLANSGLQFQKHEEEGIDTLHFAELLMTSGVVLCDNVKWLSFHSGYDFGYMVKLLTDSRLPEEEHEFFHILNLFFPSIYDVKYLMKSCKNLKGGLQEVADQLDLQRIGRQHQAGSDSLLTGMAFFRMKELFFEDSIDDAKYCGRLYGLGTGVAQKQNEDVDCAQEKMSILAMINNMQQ
UniProt Q920Q6, whole entry: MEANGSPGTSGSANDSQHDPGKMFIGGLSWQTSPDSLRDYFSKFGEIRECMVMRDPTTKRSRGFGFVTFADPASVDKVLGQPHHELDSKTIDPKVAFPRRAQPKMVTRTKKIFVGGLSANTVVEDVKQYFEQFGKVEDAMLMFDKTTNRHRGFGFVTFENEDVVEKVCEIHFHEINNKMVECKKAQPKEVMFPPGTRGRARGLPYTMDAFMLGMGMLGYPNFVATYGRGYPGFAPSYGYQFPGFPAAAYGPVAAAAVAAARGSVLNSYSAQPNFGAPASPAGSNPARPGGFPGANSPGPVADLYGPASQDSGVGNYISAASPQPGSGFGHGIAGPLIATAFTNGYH

Experiments:
Experiment in all cases: co-IP
[1] = biological target: FLAG-tagged CNOT2 (UniProt Q8C5L3)
[2] = biological target: FLAG-tagged CNOT3 (UniProt Q8K0V4)
[3] = biological target: FLAG-tagged CNOT8-R (the C-terminus of CNOT8 replaced with that of CNOT7) (UniProt Q9D8X5)
[4] = biological target: FLAG-tagged CNOT8-M141A (UniProt Q9D8X5)
[5] = biological target: FLAG-tagged CNOT8 (wild type) (UniProt Q9D8X5)

Measured: binding

HA-tagged MSI2 (Musashi-2) (from UniProt Q920Q6 1-346)
binds: all assays above
